Measured values: patent publication US20150071931A1
These are yes or no findings as the source states them, for the method shown. Some binding calls cover weakened binding; strength is not graded here. For some assays here: Sequences can lack the tags named with a protein. One block for each binder: values may come before it.

Columns and labels:
[1] = molecular target: T1, non-POU domain-containing octamer-binding protein (NONO), endogenous, of human tumor cell lines (cell surface / membrane extracts / lysates) (human) (UniProt Q15233); test: LM-1 blots of fractionated BxPC-3 membrane preparation with MALDI identification
T1 sequence: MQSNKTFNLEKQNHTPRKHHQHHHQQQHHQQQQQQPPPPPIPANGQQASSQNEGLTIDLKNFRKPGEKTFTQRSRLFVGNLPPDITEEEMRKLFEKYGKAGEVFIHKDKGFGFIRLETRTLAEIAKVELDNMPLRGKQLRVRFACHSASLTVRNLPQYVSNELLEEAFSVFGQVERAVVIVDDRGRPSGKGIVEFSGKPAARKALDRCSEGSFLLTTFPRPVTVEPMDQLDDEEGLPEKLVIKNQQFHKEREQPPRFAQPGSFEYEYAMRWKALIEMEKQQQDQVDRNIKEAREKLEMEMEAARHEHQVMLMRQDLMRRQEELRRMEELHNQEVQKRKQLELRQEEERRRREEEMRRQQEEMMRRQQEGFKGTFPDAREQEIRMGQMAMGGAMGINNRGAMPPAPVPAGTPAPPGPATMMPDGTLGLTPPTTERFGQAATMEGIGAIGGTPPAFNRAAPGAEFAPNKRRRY

[2] = molecular target: T2, bacterially expressed Nono-6×His fusion protein (pEXP5-CT-Nono-6×His in E. coli BL21 (DE3)) (human) (UniProt Q15233); test: Western blot of E. coli BL21 (DE3) expressed protein
T2 sequence: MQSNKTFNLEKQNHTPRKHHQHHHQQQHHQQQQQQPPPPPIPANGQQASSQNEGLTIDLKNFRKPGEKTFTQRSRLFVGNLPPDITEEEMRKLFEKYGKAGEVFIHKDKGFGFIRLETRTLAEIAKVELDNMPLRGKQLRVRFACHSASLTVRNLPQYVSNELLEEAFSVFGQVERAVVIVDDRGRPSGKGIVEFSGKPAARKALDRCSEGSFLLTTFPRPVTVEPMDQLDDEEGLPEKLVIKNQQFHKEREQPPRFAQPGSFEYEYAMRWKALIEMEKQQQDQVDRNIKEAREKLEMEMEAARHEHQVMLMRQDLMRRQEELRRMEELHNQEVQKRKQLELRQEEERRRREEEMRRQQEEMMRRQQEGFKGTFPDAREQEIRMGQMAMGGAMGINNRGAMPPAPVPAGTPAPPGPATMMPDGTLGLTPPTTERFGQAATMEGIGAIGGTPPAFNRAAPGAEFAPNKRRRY

[3] = molecular target: T1, non-POU domain-containing octamer-binding protein (NONO), endogenous, of human tumor cell lines (cell surface / membrane extracts / lysates) (human); test: 2D-PAGE and chromatography of BxPC-3 extracts, blotting with LM-1, MALDI peptide mass fingerprint
[4] = molecular target: T3, recombinant Nono-6×His fusion protein expressed in HEK293 cells (pcDNA3.1-V5-His-Nono-6×His; clone HEK293-Nono-6×His-A9) (human) (UniProt Q15233); test: Western blot of HEK293-Nono-6xHis-A9 and HEK293wt lysates with LM-1 and anti-human-IgM-HRP
T3 sequence: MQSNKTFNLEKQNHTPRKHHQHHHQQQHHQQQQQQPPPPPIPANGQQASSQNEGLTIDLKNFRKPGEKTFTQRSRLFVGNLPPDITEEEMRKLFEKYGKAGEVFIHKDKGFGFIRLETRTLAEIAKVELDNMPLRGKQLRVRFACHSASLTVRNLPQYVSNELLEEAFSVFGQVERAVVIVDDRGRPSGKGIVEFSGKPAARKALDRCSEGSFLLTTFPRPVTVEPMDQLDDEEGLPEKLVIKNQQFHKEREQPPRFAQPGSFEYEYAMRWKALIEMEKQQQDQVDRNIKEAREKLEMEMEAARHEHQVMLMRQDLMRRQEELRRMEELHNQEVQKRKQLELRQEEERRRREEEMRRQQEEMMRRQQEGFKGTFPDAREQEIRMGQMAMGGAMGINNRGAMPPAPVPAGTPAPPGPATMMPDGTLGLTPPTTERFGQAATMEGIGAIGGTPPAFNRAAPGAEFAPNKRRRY

[5] = molecular target: T1, non-POU domain-containing octamer-binding protein (NONO), endogenous, of human tumor cell lines (cell surface / membrane extracts / lysates) (human); test: anti-nmt55 immunoprecipitate of MKN membrane preparation; Western blot with LM-1 and anti human IgM HRP
[6] = molecular target: T1, non-POU domain-containing octamer-binding protein (NONO), endogenous, of human tumor cell lines (cell surface / membrane extracts / lysates) (human); test: Western blot of HEK293-Nono-6xHis-A9 and HEK293wt lysates with LM-1 and anti-human-IgM-HRP; endogenous Nono of HEK293 cells
[7] = molecular target: T2, bacterially expressed Nono-6×His fusion protein (pEXP5-CT-Nono-6×His in E. coli BL21 (DE3)) (human); test: ELISA, nmt55 coated on the plate
[8] = molecular target: T3, recombinant Nono-6×His fusion protein expressed in HEK293 cells (pcDNA3.1-V5-His-Nono-6×His; clone HEK293-Nono-6×His-A9) (human); test: Western blot of HEK293-Nono-6×His-A9 and HEK293 wt cell lysate, LM-1 and anti-human-IgM-HRP
[9] = molecular target: T1, non-POU domain-containing octamer-binding protein (NONO), endogenous, of human tumor cell lines (cell surface / membrane extracts / lysates) (human); test: FACS on A549, BxPC-3 and MKN cells
[10] = molecular target: T3, recombinant Nono-6×His fusion protein expressed in HEK293 cells (pcDNA3.1-V5-His-Nono-6×His; clone HEK293-Nono-6×His-A9) (human); test: Western blot (figure legend)
[11] = molecular target: T2, bacterially expressed Nono-6×His fusion protein (pEXP5-CT-Nono-6×His in E. coli BL21 (DE3)) (human); test: Western blot (figure legend)
[12] = molecular target: T1, non-POU domain-containing octamer-binding protein (NONO), endogenous, of human tumor cell lines (cell surface / membrane extracts / lysates) (human); test: Western blot of lysates of siRNA transfected BxPc-3 cells (figure legend)
[13] = molecular target: T1, non-POU domain-containing octamer-binding protein (NONO), endogenous, of human tumor cell lines (cell surface / membrane extracts / lysates) (human); test: anti-nmt55 immunoprecipitate of BxPC-3 membrane preparation; Western blot with LM-1
[14] = molecular target: T1, non-POU domain-containing octamer-binding protein (NONO), endogenous, of human tumor cell lines (cell surface / membrane extracts / lysates) (human); test: FACS, 10,000 cells per cell line, antibody at 100 ug/ml, anti-human IgM FITC
[15] = molecular target: T2, bacterially expressed Nono-6×His fusion protein (pEXP5-CT-Nono-6×His in E. coli BL21 (DE3)) (human); test: ELISA, nmt55 coated on the plate, secondary antibody-HRP
[16] = molecular target: T1, non-POU domain-containing octamer-binding protein (NONO), endogenous, of human tumor cell lines (cell surface / membrane extracts / lysates) (human); test: anti-nmt55 immunoprecipitate of A549 cells; Western blot with LM-1
[17] = molecular target: T1, non-POU domain-containing octamer-binding protein (NONO), endogenous, of human tumor cell lines (cell surface / membrane extracts / lysates) (human); test: FACS on A549 cells stably transfected with NONO antisense
[18] = molecular target: T1, non-POU domain-containing octamer-binding protein (NONO), endogenous, of human tumor cell lines (cell surface / membrane extracts / lysates) (human); test: FACS on living human cancer cell lines
[19] = molecular target: T2, bacterially expressed Nono-6×His fusion protein (pEXP5-CT-Nono-6×His in E. coli BL21 (DE3)) (human); test: Western blot of bacterially expressed protein (reference to Example 16)
[20] = molecular target: T1, non-POU domain-containing octamer-binding protein (NONO), endogenous, of human tumor cell lines (cell surface / membrane extracts / lysates) (human); test: Western blot of whole cell lysate from transfected BxPc cells, stained with LM-1
[21] = molecular target: T2, bacterially expressed Nono-6×His fusion protein (pEXP5-CT-Nono-6×His in E. coli BL21 (DE3)) (human); test: Western blot of E. coli BL21 lysates with LM-1
[22] = molecular target: T1, non-POU domain-containing octamer-binding protein (NONO), endogenous, of human tumor cell lines (cell surface / membrane extracts / lysates) (human); test: Western blot of lysates of BxPc-3 cells transfected with NONO/nmt55 siRNA, stained with LM-1 IgM
[23] = molecular target: T1, non-POU domain-containing octamer-binding protein (NONO), endogenous, of human tumor cell lines (cell surface / membrane extracts / lysates) (human); test: FACS on A549 and BxPc-3 cells, anti-human IgG-FITC

- binding [1]: binds
- binding [2]: binds
- binding [3]: binds
- binding [4]: binds
- binding [5]: binds
- binding [6]: binds
- binding [7]: binds
- binding [8]: binds
- binding [9]: binds
- binding [10]: binds
- binding [11]: binds
- binding [12]: binds
- binding [13]: binds
- binding [14]: binds
- binding [15]: binds
- binding [16]: binds
- binding [17]: binds
- binding [18]: binds
- binding [19]: binds
- binding [20]: binds
- binding [21]: binds
- binding [22]: binds
B1: LM-1 human monoclonal IgM antibody produced by hybridoma (trioma) cell line DSMZ Deposit No. DSM ACC 2623 (antibody, V domains shown)
VH: QVQLQESGPGLVKPSPTLSLTCAVSGGSISSGGYYWSWIRQHPGKGLEWIGYIYYSGSTYYNPSLKSRVTISVDTSKNQFSLKLSSVTAADTAVYYCARVDARYDYVWGSYRYDAFDIWGQGTMVTVSS
VL: QSVLTQPPSVSAAPGQKVTISCSGSSSNIGNNYVSWYQQLPGTAPKLLIYDNNKRPSGIPDRFSGSKSGTSATLGITGLQTGDEADYYCGTWDSSLSAGWVFGGGTKLTVLG

- binding [23]: binds
B2: isotype switched LM1 IgG antibody (expressed from pVitro2-LM1-HC-LC in HEK293 cells) (antibody, V domains shown, not shown: a dimerising Fc or GST)
VH: QVQLQESGPGLVKPSPTLSLTCAVSGGSISSGGYYWSWIRQHPGKGLEWIGYIYYSGSTYYNPSLKSRVTISVDTSKNQFSLKLSSVTAADTAVYYCARVDARYDYVWGSYRYDAFDIWGQGTMVTVSS
VL: QSVLTQPPSVSAAPGQKVTISCSGSSSNIGNNYVSWYQQLPGTAPKLLIYDNNKRPSGIPDRFSGSKSGTSATLGITGLQTGDEADYYCGTWDSSLSAGWVFGGGTKLTVLG
